Many values rest on one well or one pass, so single values are uncertain.
Compound: [O-][N+](C(C1=C(C(O)=C2)NC(C(C=C3)=CC=C3Cl)C4C1C=CC4)=C2Cl)=O
Assay: melting temperature shift (compound 7 minus DMSO); higher = compound stabilises the protein
Settings: 10 µM
Experimental: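 Thermal proteome profiling (TMT mass spectrometry) in intact DAOY medulloblastoma cells or DAOY lysates treated with 10 µM compound 7 or DMSO, heated at 10 temperatures from 40.5 to 73.8 °C for 3 min. Melting curves were fitted with the Bioconductor TPP package, and the melting point difference between compound and vehicle is reported per protein (single curve per condition).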

Chains of the proteins cited; added tags and fusions are not shown. Lines headed by an entry give the natural chain unless they say otherwise; changes in a name come on top.
UniProt Q15345: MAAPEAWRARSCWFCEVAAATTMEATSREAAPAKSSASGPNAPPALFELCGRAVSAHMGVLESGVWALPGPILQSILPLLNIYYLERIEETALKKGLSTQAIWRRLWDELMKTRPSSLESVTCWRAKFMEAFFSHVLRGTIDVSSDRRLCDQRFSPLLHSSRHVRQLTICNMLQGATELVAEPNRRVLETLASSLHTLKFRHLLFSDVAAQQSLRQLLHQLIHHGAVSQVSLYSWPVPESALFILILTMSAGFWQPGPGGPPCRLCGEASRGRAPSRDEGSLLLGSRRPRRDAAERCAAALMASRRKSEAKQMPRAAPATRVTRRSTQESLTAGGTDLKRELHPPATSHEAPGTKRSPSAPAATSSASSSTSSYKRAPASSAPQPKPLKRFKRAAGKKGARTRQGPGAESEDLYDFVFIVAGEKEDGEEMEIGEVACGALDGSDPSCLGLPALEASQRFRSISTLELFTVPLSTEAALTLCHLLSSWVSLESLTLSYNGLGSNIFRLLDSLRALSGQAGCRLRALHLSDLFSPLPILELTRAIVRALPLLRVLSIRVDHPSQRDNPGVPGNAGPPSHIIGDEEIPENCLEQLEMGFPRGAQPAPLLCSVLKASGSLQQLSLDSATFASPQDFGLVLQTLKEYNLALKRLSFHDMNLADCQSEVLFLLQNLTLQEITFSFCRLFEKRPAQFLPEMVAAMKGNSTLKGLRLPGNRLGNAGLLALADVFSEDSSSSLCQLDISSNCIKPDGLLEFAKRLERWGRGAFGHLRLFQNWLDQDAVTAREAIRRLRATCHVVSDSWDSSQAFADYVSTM
UniProt Q9NRY5: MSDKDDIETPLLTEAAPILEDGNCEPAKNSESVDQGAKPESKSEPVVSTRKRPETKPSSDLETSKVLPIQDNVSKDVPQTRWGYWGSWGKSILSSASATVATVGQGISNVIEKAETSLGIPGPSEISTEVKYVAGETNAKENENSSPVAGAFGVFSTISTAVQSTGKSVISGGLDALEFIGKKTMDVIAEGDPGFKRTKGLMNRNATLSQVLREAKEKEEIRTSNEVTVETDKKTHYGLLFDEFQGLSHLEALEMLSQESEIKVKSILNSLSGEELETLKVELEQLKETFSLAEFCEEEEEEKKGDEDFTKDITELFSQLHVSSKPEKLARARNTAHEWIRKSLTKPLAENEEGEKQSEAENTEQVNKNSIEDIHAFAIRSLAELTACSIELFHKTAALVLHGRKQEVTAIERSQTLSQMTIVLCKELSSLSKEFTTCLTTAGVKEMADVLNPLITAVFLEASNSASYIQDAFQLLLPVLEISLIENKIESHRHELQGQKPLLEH
UniProt P08238, whole entry: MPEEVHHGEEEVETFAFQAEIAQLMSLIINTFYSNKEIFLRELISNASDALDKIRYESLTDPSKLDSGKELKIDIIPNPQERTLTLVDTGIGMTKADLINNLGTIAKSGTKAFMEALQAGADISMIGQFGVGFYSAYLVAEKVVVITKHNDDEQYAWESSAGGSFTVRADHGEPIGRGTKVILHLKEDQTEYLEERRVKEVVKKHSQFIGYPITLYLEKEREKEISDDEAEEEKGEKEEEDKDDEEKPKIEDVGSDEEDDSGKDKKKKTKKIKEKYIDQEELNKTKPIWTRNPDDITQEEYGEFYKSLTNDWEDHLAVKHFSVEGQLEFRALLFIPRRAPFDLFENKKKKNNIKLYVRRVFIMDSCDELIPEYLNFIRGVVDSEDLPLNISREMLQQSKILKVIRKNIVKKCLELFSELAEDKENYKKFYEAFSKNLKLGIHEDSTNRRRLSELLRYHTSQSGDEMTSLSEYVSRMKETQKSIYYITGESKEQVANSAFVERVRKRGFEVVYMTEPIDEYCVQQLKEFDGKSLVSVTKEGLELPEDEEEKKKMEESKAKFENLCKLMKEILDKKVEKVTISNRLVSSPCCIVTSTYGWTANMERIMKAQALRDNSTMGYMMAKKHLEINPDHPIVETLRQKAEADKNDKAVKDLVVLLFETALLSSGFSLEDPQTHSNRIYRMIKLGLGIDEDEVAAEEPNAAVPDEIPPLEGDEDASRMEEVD
UniProt Q08379: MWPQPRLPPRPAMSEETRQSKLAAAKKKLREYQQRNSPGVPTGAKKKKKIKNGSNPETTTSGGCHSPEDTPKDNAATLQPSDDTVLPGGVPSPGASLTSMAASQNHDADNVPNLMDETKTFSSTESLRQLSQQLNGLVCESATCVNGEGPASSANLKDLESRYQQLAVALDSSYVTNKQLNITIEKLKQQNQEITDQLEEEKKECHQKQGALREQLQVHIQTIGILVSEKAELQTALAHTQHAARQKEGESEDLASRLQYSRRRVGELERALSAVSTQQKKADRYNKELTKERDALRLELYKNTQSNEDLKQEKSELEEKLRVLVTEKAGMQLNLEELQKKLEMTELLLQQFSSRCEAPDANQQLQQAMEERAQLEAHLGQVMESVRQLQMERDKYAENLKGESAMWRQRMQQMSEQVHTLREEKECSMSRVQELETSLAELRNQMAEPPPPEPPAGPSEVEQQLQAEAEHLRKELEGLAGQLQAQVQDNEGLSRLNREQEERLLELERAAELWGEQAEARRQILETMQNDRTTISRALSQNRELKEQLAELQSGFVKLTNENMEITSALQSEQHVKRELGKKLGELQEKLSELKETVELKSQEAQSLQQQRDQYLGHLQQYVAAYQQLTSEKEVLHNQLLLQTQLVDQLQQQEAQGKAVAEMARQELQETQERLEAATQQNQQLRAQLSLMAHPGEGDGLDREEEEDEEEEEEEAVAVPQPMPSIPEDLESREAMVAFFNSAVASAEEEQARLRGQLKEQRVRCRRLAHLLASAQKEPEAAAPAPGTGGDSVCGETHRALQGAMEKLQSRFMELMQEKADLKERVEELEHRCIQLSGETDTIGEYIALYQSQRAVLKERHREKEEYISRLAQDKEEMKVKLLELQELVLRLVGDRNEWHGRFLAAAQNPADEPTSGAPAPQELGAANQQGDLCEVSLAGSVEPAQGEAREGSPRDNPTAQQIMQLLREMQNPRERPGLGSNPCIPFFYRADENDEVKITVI
UniProt O94776: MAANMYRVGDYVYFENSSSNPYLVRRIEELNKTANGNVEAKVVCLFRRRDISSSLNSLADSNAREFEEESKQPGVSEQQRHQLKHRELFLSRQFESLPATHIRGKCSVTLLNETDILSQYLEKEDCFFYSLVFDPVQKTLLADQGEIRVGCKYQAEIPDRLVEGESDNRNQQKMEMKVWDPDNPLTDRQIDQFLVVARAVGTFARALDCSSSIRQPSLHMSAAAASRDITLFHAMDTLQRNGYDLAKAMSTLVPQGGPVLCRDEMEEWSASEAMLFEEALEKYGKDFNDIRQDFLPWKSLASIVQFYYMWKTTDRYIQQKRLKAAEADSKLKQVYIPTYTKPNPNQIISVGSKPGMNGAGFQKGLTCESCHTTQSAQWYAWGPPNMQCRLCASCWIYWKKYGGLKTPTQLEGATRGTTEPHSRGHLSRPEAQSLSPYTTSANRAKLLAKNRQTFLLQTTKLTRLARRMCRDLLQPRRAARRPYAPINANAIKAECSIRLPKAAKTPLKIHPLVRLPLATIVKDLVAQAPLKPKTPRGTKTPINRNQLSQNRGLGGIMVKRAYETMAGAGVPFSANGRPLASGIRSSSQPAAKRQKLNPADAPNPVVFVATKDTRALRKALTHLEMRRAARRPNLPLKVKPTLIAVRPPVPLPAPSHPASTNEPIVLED
UniProt Q92993, whole entry, looked up: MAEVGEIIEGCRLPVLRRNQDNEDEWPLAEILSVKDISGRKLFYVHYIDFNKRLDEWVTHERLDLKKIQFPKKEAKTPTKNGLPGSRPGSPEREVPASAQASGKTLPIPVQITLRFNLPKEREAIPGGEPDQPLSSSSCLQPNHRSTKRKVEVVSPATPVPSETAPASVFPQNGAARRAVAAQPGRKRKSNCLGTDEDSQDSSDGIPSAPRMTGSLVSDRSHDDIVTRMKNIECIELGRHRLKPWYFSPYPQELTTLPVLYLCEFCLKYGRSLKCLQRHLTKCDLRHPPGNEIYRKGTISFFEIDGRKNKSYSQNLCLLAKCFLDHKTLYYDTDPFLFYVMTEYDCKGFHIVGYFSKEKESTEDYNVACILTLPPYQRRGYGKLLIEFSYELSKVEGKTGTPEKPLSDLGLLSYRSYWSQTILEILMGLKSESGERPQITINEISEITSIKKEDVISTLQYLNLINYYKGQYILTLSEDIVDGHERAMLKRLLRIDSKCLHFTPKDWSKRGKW
UniProt Q15005: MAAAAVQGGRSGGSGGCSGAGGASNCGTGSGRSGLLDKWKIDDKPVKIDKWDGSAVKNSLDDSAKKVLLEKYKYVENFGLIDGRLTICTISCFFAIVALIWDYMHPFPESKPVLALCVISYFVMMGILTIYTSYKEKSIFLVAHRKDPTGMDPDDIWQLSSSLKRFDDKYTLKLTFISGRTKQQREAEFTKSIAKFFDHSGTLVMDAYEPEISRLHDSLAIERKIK
UniProt Q9BPX6: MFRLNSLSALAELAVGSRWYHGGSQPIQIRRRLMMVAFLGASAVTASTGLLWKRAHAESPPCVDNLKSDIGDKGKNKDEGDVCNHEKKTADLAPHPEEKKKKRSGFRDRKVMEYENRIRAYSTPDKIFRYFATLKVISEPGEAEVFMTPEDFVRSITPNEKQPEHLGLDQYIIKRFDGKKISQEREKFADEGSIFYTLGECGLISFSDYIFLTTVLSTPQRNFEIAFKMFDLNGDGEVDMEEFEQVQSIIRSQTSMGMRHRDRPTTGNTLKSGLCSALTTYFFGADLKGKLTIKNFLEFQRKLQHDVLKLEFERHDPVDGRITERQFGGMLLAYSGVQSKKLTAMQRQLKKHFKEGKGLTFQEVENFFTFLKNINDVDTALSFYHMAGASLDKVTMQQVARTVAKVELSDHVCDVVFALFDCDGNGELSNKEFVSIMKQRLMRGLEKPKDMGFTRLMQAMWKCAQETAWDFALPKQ
UniProt Q9UGN5: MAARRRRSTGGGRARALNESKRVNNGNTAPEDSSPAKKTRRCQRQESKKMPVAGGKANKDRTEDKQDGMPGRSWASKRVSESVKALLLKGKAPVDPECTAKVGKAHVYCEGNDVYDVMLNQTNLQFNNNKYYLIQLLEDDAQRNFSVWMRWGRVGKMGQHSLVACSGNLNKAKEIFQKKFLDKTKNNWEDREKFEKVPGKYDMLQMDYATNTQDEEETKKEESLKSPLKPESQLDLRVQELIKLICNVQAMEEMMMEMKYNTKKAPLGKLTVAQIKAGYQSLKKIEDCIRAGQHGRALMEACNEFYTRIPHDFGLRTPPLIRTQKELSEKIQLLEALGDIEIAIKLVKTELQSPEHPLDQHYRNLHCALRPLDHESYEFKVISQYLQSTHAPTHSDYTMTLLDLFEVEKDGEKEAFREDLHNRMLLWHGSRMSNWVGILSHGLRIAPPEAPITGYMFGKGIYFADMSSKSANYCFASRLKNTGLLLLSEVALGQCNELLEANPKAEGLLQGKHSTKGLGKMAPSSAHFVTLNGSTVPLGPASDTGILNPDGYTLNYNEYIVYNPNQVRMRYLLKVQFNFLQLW
UniProt O00291: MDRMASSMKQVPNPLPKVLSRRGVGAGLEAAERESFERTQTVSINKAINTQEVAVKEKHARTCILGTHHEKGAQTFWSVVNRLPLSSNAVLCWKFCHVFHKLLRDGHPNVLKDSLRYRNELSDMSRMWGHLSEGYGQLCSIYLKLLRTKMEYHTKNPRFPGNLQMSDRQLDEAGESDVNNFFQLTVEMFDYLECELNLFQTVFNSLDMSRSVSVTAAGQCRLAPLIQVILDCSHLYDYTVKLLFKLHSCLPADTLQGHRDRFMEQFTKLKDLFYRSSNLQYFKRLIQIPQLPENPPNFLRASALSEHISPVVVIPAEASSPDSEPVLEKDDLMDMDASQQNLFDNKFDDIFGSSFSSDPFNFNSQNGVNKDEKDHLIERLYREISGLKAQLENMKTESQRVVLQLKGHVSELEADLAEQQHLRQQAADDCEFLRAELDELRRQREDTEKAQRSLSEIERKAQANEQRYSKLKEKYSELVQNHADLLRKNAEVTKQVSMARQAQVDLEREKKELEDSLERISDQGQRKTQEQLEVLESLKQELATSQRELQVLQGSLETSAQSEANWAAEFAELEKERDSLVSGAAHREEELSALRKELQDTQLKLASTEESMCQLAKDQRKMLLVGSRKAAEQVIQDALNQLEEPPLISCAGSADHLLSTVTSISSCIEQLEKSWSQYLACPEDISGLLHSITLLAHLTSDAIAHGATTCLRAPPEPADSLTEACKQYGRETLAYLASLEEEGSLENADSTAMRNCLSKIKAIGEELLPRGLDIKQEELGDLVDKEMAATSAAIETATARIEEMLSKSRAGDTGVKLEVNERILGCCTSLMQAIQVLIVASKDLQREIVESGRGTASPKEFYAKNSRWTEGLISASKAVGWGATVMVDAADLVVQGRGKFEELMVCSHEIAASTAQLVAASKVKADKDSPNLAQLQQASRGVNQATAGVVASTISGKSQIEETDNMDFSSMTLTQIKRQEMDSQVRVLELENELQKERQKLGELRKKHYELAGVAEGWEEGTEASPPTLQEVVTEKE

[1] = system: DAOY cell lysate, treatment time: 20 min, 4 °C
[2] = system: intact DAOY cells, treatment time: 90 min, 37 °C

Target | melting temperature shift [1] | melting temperature shift [2]
RANBP10 (UniProt Q6VN20) | -0.36 °C | 2.35 °C
EXOSC4 (UniProt Q9NPD3) | -0.966 °C | -2.15 °C
LRRC41 (UniProt Q15345) | -0.981 °C | –
PRRC2A (UniProt P48634) | 0.411 °C | –
FAM114A2 (UniProt Q9NRY5) | -0.192 °C | -0.156 °C
HSP90AB1 (UniProt P08238) | -0.348 °C | -0.356 °C
GOLGA2 (UniProt Q08379) | 1.48 °C | 0.287 °C
MTA2 (UniProt O94776) | -0.114 °C | -0.906 °C
LBR (UniProt Q14739) | 0.808 °C | -3.02 °C
ARHGEF18 (UniProt Q6ZSZ5) | -0.138 °C | 0.186 °C
COPS5 (UniProt Q92905) | -0.749 °C | -0.165 °C
COL4A2 (UniProt P08572) | 1.5 °C | 0.612 °C
RPL9 (UniProt P32969) | 0.375 °C | -0.859 °C
SEC11C (UniProt Q9BY50) | 1.83 °C | -1.86 °C
SPAG9 (UniProt O60271) | -0.314 °C | 0.476 °C
ZC3H18 (UniProt Q86VM9) | 0.75 °C | -0.0398 °C
UniProt Q86XF0 | – | 0.111 °C
UniProt Q92993 | 0.912 °C | –
BTAF1 (UniProt O14981) | -0.412 °C | -1.04 °C
FBXO30 (UniProt Q8TB52) | 1.1 °C | 0.372 °C
GTF3C4 (UniProt Q9UKN8) | -0.0289 °C | 0.586 °C
ATG5 (UniProt Q9H1Y0) | 0.193 °C | 0.454 °C
UniProt Q9P0S2 | -0.188 °C | -0.372 °C
SPCS2 (UniProt Q15005) | 1.61 °C | -1.12 °C
CCDC134 (UniProt Q9H6E4) | -0.231 °C | -0.215 °C
UniProt O43257 | – | -0.603 °C
LARP1 (UniProt Q6PKG0) | -0.372 °C | -0.242 °C
TBC1D10B (UniProt Q4KMP7) | 2.06 °C | -2.22 °C

Target | melting temperature shift [1] | melting temperature shift [2]
MICU1 (UniProt Q9BPX6) | 2.3 °C | -1.03 °C
ING1 (UniProt Q9UK53) | 0.569 °C | 1.97 °C
NUDT1 (UniProt P36639) | -0.6 °C | 0.302 °C
ATP6V0A2 (UniProt Q9Y487) | -0.282 °C | –
UniProt Q8IWE5 | – | -3.22 °C
HP1BP3 (UniProt Q5SSJ5) | -0.0401 °C | 0.0163 °C
ACAP2 (UniProt Q15057) | 0.524 °C | -0.812 °C
ECT2 (UniProt Q9H8V3) | -0.922 °C | 2.11 °C
PFKM (UniProt P08237) | -0.577 °C | -0.235 °C
PARP2 (UniProt Q9UGN5) | -0.983 °C | –
SCP2 (UniProt P22307) | 2.04 °C | -0.972 °C
SF3A1 (UniProt Q15459) | -0.49 °C | 0.599 °C
UniProt Q16512 | -1.67 °C | -0.422 °C
ERAP1 (UniProt Q9NZ08) | -0.078 °C | 0.551 °C
UniProt Q86U42 | 0.117 °C | -0.208 °C
UniProt P34913 | 5.89 °C | 0.812 °C
UniProt Q2TB10 | 0.768 °C | –
UniProt Q9C010 | – | 0.0787 °C
HIP1 (UniProt O00291) | -0.275 °C | -0.719 °C
UniProt Q8TAA3 | – | -0.268 °C
UniProt P51587 | 0.079 °C | –
IDI1 (UniProt Q13907) | -1.55 °C | -0.92 °C
UniProt P22413 | 1.23 °C | –
DCUN1D1 (UniProt Q96GG9) | -0.53 °C | -0.374 °C
UniProt P24468 | -1.2 °C | -1.66 °C
NHP2 (UniProt Q9NX24) | 2.41 °C | 0.321 °C
FAM134C (UniProt Q86VR2) | 3.79 °C | -3.02 °C

An excerpt of these results, in markdown.

| Target | melting temperature shift [1] | melting temperature shift [2] |
| --- | --- | --- |
| NUDT1 (UniProt P36639) | -0.6 °C | 0.302 °C |
| HP1BP3 (UniProt Q5SSJ5) | -0.0401 °C | 0.0163 °C |
| ECT2 (UniProt Q9H8V3) | -0.922 °C | 2.11 °C |
| PARP2 (UniProt Q9UGN5) | -0.983 °C | – |
| SCP2 (UniProt P22307) | 2.04 °C | -0.972 °C |
| SF3A1 (UniProt Q15459) | -0.49 °C | 0.599 °C |
| ERAP1 (UniProt Q9NZ08) | -0.078 °C | 0.551 °C |
| UniProt P34913 | 5.89 °C | 0.812 °C |
| UniProt Q9C010 | – | 0.0787 °C |
| UniProt Q8TAA3 | – | -0.268 °C |
| UniProt P22413 | 1.23 °C | – |
| DCUN1D1 (UniProt Q96GG9) | -0.53 °C | -0.374 °C |
| UniProt P24468 | -1.2 °C | -1.66 °C |
| FAM134C (UniProt Q86VR2) | 3.79 °C | -3.02 °C |
